Data published in PMC5875850.
For some assays here: The comparison behind a weaker result is the experiment's own reference, which may not be listed here. For some assays here: For at least one entry, the source does not settle the construct or the ends of the probe. For some assays here: At least one verdict rests on a figure or table, not on a statement of the authors.

Protein sequences, listed by entry. Tags and fused reporters are not part of them. Residues count along the entry.
UniProt Q9HC16, 191-384 P210R/L234K/C243A/F310K/C321A/C356A: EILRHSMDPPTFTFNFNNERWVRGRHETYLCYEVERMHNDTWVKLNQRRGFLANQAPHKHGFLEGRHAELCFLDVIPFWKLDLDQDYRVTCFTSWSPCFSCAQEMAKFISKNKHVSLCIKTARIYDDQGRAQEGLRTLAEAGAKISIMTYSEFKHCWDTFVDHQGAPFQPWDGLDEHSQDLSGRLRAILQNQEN
UniProt Q9HC16, 191-384 L234K/C243A/F310K/C321A/C356A: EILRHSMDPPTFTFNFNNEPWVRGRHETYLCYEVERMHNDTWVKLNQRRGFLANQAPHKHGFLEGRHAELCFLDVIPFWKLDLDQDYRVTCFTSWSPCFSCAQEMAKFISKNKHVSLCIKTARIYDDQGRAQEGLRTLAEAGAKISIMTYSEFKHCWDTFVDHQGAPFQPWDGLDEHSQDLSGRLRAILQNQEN

Key:
[1] = target: A3GCTD P210R P210R,L234K,C243A,F310K,C321A,C356A (Homo sapiens) (UniProt Q9HC16); experiment: single-turnover deamination kinetics (kobs vs [E], hyperbolic fit); conditions: Kd only in Fig 4D, Kinetic Kd: 20 mM Tris pH 8.0, 1 mM DTT, 37 C, 1-50 uM enzyme, 40 nM DNA, SEC/complex: 50 mM Tris pH 7.0, 100 mM NaCl, recombinant protein, protein details: His6-MBP tag removed by SARS-CoV Mpro, label: 5' 32P, single-stranded DNA
[2] = target: A3GCTD WT (A3G191-384-2K3A) L234K,C243A,F310K,C321A,C356A (Homo sapiens) (UniProt Q9HC16); experiment: as above; conditions: Kd only in Fig 4D, P210R binds tighter; Kinetic Kd: 20 mM Tris pH 8.0, 1 mM DTT, 37 C, 1-50 uM enzyme, 40 nM DNA; SEC/complex: 50 mM Tris pH 7.0, 100 mM NaCl; recombinant protein; protein details: His6-MBP tag removed by SARS-CoV Mpro; label: 5' 32P; single-stranded DNA

| Sequence | binding result ([1]; affinity decreased vs WT) | binding result ([1]; affinity increased vs WT) | binding result [2] |
| --- | --- | --- | --- |
| TAGAAAGGGAGACCCAAAGAGGAAAGGTGA [CCCA 30-mer] | binds more weakly |  |  |
| TAGAAAGGGAGACCCGAAGAGGAAAGGTGA [CCCG 30-mer] |  | binds | binds |
| TAGAAAGGGAGACCCTAAGAGGAAAGGTGA [CCCT 30-mer] |  | binds | binds |
